The entries are a selection whose mix differs from that of the whole data set. For part of these data: At the low end of the ranking, values are background and their order means little. The list shows a part of the results. For part of these data: The source does not settle which construct or isoform was used.

The chains behind the UniProt entries cited, without tags or fusion partners. Where a name states a change or a piece, a line headed by the entry shows the natural chain unless it says otherwise.
UniProt P32519: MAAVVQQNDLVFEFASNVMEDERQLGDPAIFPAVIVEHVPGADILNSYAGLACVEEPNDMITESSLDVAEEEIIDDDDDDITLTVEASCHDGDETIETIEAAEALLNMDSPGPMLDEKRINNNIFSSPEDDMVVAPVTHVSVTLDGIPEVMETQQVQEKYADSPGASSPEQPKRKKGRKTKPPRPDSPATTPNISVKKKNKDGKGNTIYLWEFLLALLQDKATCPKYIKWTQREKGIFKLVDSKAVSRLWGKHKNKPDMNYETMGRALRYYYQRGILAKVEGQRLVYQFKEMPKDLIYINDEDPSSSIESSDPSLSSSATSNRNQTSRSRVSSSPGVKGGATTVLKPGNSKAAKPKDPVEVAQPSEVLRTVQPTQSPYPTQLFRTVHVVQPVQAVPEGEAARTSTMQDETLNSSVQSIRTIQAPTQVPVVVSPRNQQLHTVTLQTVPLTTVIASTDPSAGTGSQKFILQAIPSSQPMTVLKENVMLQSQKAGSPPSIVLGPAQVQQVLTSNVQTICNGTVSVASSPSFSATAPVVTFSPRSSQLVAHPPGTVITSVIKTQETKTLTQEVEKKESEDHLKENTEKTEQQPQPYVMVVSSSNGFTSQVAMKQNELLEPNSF

In one test the target is ELF1 (UniProt P32519). As to the kind of experiment: DAPPL (digital affinity profiling via proximity ligation, sequencing). The following applies: 10 mM Tris-HCl pH 7.5, 50 mM NaCl, 1 mM DTT, 4% glycerol, room temperature, 30 min; GST-TFs on glutathione beads, 16-mer random dsDNA library, 0.1% …; high values mean tight binding; double strand, one strand shown; scale: fold enrichment (6-mer frequency, TF over GST control).
Consider ATCCAA, for which the binding signal was 1.2.

In the case of GCCTCC, the binding signal amounted to 1.27.

ATTATG registered a binding signal of 1.2.

As for TGGCTA, the binding signal is 1.22.

In turn, TGGCAA yielded a binding signal of 1.2.

In the case of CGACCG, the binding signal is 1.17.

Turning to CTCTTC, the binding signal was 1.66.

On to TTTGAA, for which the binding signal amounted to 1.23.

CCGCGT came in with a binding signal of 1.1.

AACAGG: the binding signal came out at 1.08.

Sequence TTAACT returned a binding signal of 1.27.

Regarding AACCAT, the binding signal worked out at 1.18.

Sequence GTATGC displayed a binding signal of 1.2.

As for AATTCC, the binding signal worked out at 1.86.

AATTGC displayed a binding signal of 1.34.

Sequence ATATCG showed a binding signal of 1.16.

As for CTGCTA, the binding signal was 1.47.

In the case of ATCGAT, the binding signal worked out at 1.15.

AAAATT displayed a binding signal of 1.34.

AGACCT had a binding signal of 1.05.

Regarding TCGCAA, the binding signal stood at 1.19.

The sequence CGTACT gave a binding signal of 1.27.

AAGGAA had a binding signal of 1.25.

Sequence TTCAAA came in with a binding signal of 1.34.

On to ATACTA, for which the binding signal was determined as 1.21.

For the sequence CACTAA, the binding signal amounted to 1.18.

Take CCTGGA: the binding signal amounted to 1.4.

A further test has as its target T1, ETV4 (UniProt P43268).
T1 sequence: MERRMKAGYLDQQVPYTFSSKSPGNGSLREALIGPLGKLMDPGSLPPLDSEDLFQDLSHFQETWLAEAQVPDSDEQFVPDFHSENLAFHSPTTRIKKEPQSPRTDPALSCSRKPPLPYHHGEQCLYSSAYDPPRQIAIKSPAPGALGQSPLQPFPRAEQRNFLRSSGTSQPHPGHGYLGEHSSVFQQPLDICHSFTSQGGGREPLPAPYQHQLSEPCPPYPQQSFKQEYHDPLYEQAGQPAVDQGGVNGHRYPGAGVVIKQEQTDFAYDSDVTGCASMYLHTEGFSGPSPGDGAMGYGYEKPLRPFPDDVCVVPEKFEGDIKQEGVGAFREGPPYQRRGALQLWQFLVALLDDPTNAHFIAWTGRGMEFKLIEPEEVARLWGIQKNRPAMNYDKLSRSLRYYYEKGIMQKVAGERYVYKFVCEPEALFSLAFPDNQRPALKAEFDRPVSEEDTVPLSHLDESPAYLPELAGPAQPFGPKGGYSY
The description is as above. As to conditions: 10 mM Tris-HCl pH 7.5, 50 mM NaCl, 1 mM DTT, 4% glycerol, room temperature, 30 min; GST-TFs on glutathione beads, 16-mer random dsDNA library, 0.1% …; high values mean tight binding; double strand, one strand shown; scale: fold enrichment (6-mer frequency, TF over GST control).
Take ATCCAA: the binding signal was 1.23.

GCCTCC registered a binding signal of 1.36.

Turning to ATTATG, the binding signal worked out at 1.22.

Turning to TGGCTA, the binding signal turned out to be 1.22.

Consider TGGCAA, for which the binding signal worked out at 1.12.

CGACCG returned a binding signal of 1.29.

The sequence CTCTTC came in with a binding signal of 1.71.

In turn, TTTGAA registered a binding signal of 1.29.

Sequence GATCTT showed a binding signal of 1.26.

With CCGCGT, the binding signal stood at 1.15.

As to TACGCT, the binding signal amounted to 1.32.

For the sequence AACAGG, the binding signal was determined as 1.09.

In the case of AAGCGA, the binding signal turned out to be 1.12.

As for TTAACT, the binding signal turned out to be 1.25.

CTTGTC had a binding signal of 1.33.

In turn, CATTTA had a binding signal of 1.14.

Consider AACCAT, for which the binding signal was determined as 1.13.

In turn, GTATGC came in with a binding signal of 1.15.

Regarding AATTCC, the binding signal was determined as 1.9.

Turning to AATTGC, the binding signal came out at 1.38.

Turning to ATATCG, the binding signal was 1.28.

Sequence GTATTT yielded a binding signal of 1.6.

On to ACAAGC, for which the binding signal worked out at 1.09.

For CTGCTA, the binding signal is 1.41.

On to ATCGAT, for which the binding signal was 1.08.

AAAATT had a binding signal of 1.32.

With ATGTTC, the binding signal turned out to be 1.27.

Take ACTACT: the binding signal worked out at 1.21.

Regarding AGACCT, the binding signal came to 1.12.

TCGCAA gave a binding signal of 1.14.

In turn, CGTACT registered a binding signal of 1.22.

AAGGAA returned a binding signal of 1.16.

ACCCCG came in with a binding signal of 1.17.

Consider TTCAAA, for which the binding signal is 1.26.

In turn, ATACTA displayed a binding signal of 1.07.

On to CACTAA, for which the binding signal was 1.18.

TTCCTG came in with a binding signal of 2.3.

Consider CACCAT, for which the binding signal stood at 1.11.

Regarding CCTGGA, the binding signal turned out to be 1.38.

The target of a further test is T2, ERF (UniProt P50548).
T2 sequence: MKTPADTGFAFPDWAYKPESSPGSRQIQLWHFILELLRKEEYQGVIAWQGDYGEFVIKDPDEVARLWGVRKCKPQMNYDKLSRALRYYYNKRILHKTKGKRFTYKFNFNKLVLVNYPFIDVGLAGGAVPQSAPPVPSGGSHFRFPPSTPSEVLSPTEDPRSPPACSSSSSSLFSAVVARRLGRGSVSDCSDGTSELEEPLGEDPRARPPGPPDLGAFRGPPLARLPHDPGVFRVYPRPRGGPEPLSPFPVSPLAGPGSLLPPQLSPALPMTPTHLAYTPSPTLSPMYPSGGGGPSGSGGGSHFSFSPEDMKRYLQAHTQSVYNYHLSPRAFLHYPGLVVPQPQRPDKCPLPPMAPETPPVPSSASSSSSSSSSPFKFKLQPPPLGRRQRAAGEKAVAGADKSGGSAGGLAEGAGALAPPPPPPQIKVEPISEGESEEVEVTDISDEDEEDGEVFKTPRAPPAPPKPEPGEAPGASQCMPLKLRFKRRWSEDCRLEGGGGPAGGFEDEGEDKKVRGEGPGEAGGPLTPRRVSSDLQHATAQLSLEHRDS
The description is as above. As to conditions: 10 mM Tris-HCl pH 7.5, 50 mM NaCl, 1 mM DTT, 4% glycerol, room temperature, 30 min; GST-TFs on glutathione beads, 16-mer random dsDNA library, 0.1% …; high values mean tight binding; double strand, one strand shown; scale: fold enrichment (6-mer frequency, TF over GST control).
In turn, ATCCAA had a binding signal of 0.993.

In turn, GCCTCC came in with a binding signal of 1.39.

For the sequence ATTATG, the binding signal came to 1.11.

In turn, TGGCAA came in with a binding signal of 1.21.

On to CGACCG, for which the binding signal came out at 1.17.

CTCTTC showed a binding signal of 1.62.

Regarding GATCTT, the binding signal is 1.15.

On to CCGCGT, for which the binding signal was 1.08.

Turning to TACGCT, the binding signal amounted to 1.4.

For the sequence AACAGG, the binding signal is 1.16.

Sequence AAGCGA displayed a binding signal of 1.02.

As to TTAACT, the binding signal is 1.23.

In turn, CTTGTC gave a binding signal of 1.44.

The sequence CATTTA gave a binding signal of 1.23.

On to AACCAT, for which the binding signal turned out to be 1.07.

For the sequence GTATGC, the binding signal was found to be 1.05.

For AATTCC, the binding signal worked out at 1.65.

Turning to ATATCG, the binding signal turned out to be 1.23.

GTATTT returned a binding signal of 1.47.

ACAAGC registered a binding signal of 1.15.

Sequence CTGCTA showed a binding signal of 1.49.

As to ATCGAT, the binding signal stood at 1.13.

Regarding AAAATT, the binding signal came out at 1.48.

For ATGTTC, the binding signal came to 1.27.

Sequence ACTACT came in with a binding signal of 1.33.

As for AGACCT, the binding signal was found to be 0.996.

The sequence TCGCAA had a binding signal of 1.27.

Regarding CGTACT, the binding signal is 1.27.

ACCCCG registered a binding signal of 1.26.

Consider TTCAAA, for which the binding signal was 1.26.

For ATACTA, the binding signal was determined as 1.09.

Consider TTCCTG, for which the binding signal amounted to 1.87.

In turn, CACCAT gave a binding signal of 1.12.

The values above are taken from paper PMC7862700.
